The source of these data is the odorant receptor screen of Mainland et al. (2015).

Chains of the proteins cited; added tags and fusions are not shown. A line that says so, or that is headed by a name, gives the form on record, which may keep a tag or linker.
OR11H13, as listed by the source: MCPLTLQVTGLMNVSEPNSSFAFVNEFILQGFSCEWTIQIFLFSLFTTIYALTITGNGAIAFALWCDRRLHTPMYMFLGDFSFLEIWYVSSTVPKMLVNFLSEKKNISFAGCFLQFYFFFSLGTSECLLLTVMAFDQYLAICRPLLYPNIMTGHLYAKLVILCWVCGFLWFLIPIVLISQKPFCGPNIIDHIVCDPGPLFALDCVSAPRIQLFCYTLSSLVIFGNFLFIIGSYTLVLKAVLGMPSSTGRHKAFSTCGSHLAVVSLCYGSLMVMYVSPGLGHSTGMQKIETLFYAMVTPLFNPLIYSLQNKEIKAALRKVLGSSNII

Test systems include OR10R2 clone 1400; OR10T2 clone 1032; OR10W1 R263Q clone 1176; OR10X1 clone 1368; OR10X1 clone 1516; OR10Z1 clone 1026; OR11A1 clone 1062; OR11H1 clone 1558; OR11H12 clone 1302; OR11H13 clone 1435; OR11H4 clone 1263; OR11H4 clone 1423; OR11H6 clone 1275; OR12D2 clone 1075; OR12D3 clone 1071; OR13A1 clone 1107; OR13C2 clone 1717.
Holding throughout (assay): odorant receptor activation (CRE luciferase / Renilla) (fold of no-odor wells); higher = more activation
Common to all, as to conditions: 100 µM

For experiment [1], the system named is OR10V1 Q101L/V117A/Q123W clone 1520.
The subject of experiment [2] is OR11L1 G108S/F117L/A142T/R171P clone 1031.
Experiment [3] relates to OR12D2 V47F/L56P/S104F/F113L/L120R/V159I clone 1373.

Several values for one entry are separate records, joined by “and”; a condition that tells them apart may be missing. Identical values can stand only once. Some of the results follow. Single wells; the ratio to wells without odorant was worked out here, and repeats agree poorly.

As to `O=C1CCCCCCCCCCCC(=O)OCCO1` [ethylene brassylate], the odorant receptor activation is 1.49 with OR10R2 clone 1400; 1.24 with OR10T2 clone 1032; 1.49 in experiment [1]; 1.66 in the experiment with OR10W1 R263Q clone 1176; 1.81 in the experiment on OR10X1 clone 1368; 1.51 in the experiment with OR10X1 clone 1516. The odorant receptor activation worked out at 1.49 in the experiment on OR10Z1 clone 1026; 2.14 with OR11A1 clone 1062; 1.16 with OR11H1 clone 1558; 1.55 in the experiment with OR11H12 clone 1302; 1.86 in the experiment on OR11H13 clone 1435; 1.74 with OR11H4 clone 1263. For the same compound, the odorant receptor activation is 1.39 with OR11H4 clone 1423; 1.3 with OR11H6 clone 1275; 1.68 in experiment [2]; 1.45 in experiment [3]; 1.18 in the experiment with OR12D2 clone 1075; 1.28 with OR12D3 clone 1071. The odorant receptor activation worked out at 1.64 in the experiment with OR13A1 clone 1107 and 1.33 with OR13C2 clone 1717.

Regarding `CC(C)CC(=O)O` [isovaleric acid], the odorant receptor activation in the experiment with OR10R2 clone 1400 is 0.937; in the experiment with OR10T2 clone 1032, 1.17; in [1], 0.964; in the experiment with OR10W1 R263Q clone 1176, 1.13; in the experiment with OR10X1 clone 1368, 1.1; in the experiment on OR10X1 clone 1516, 0.868. The odorant receptor activation with OR10Z1 clone 1026 was 1.05; with OR11A1 clone 1062, 1.08; in the experiment on OR11H1 clone 1558, 0.804; with OR11H12 clone 1302, 0.937; with OR11H13 clone 1435, 0.913; in the experiment on OR11H4 clone 1263, 0.644. Besides, the odorant receptor activation in the experiment with OR11H4 clone 1423 turned out to be 0.768; in the experiment on OR11H6 clone 1275, 0.736; in [2] it was 1.43; in [3], 1.29; in the experiment with OR12D2 clone 1075 it was 1.33; with OR12D3 clone 1071, 1.66. In addition, the values for the odorant receptor activation with OR13A1 clone 1107 and in the experiment on OR13C2 clone 1717 were 1.81 and 0.994, respectively.

As to `C=C(C)C1CC=CCC1` (stereo not given) [r-limonene], the odorant receptor activation in the experiment on OR10R2 clone 1400 is 1.11 and 0.657; with OR10T2 clone 1032 it was 1.01 and 1.6; in experiment [1], 0.949 and 0.503 and 0.89; with OR10W1 R263Q clone 1176, 0.917 and 0.312; in the experiment with OR10X1 clone 1368 it was 0.753 and 1.17; in the experiment with OR10X1 clone 1516, 0.989 and 1.08 and 0.877. In addition, the odorant receptor activation with OR10Z1 clone 1026 was 0.911 and 1.12; with OR11A1 clone 1062 it was 1.32 and 1.24; in the experiment on OR11H1 clone 1558, 1.02; in the experiment with OR11H12 clone 1302 it was 0.787 and 0.437; in the experiment with OR11H13 clone 1435 it was 1.43 and 0.996; in the experiment with OR11H4 clone 1263, 0.813 and 0.686. The odorant receptor activation with OR11H4 clone 1423 was 1.17 and 0.803; in the experiment with OR11H6 clone 1275, 0.796 and 0.867; in experiment [2] it was 1.02 and 1.83; in [3] it was 1.21 and 1.06; with OR12D2 clone 1075, 1.19 and 1.41; with OR12D3 clone 1071, 1.23 and 1.02. Also, the odorant receptor activation with OR13A1 clone 1107 is 1.14 and 1.08; in the experiment on OR13C2 clone 1717 it was 1.19.

`COc1ccccc1O` [guaiacol]: the odorant receptor activation in the experiment with OR10R2 clone 1400 is 0.703; in the experiment on OR10T2 clone 1032, 1.17; in experiment [1], 0.564 and 1.01; in the experiment with OR10W1 R263Q clone 1176, 1.14; in the experiment on OR10X1 clone 1368, 1.03; in the experiment on OR10X1 clone 1516 it was 0.915 and 1.23. In addition, the odorant receptor activation with OR10Z1 clone 1026 is 1.09; in the experiment on OR11A1 clone 1062, 1.42; in the experiment with OR11H1 clone 1558 it was 0.786; in the experiment with OR11H12 clone 1302 it was 1.06 and 0.823; in the experiment with OR11H13 clone 1435, 0.64; in the experiment on OR11H4 clone 1263, 0.946 and 1.27. Also, the odorant receptor activation with OR11H4 clone 1423 was 0.85; in the experiment on OR11H6 clone 1275, 0.607 and 0.849; in [2], 0.638; in experiment [3], 0.925; in the experiment on OR12D2 clone 1075 it was 1.75; with OR12D3 clone 1071, 0.693. Also, the odorant receptor activation is 2.11 in the experiment with OR13A1 clone 1107 and 0.904 in the experiment with OR13C2 clone 1717.

As to `C=CCc1ccc(O)c(OC)c1` [eugenol], the odorant receptor activation in the experiment on OR10R2 clone 1400 was 1.14 and 1.39; in the experiment with OR10T2 clone 1032 it was 1.54 and 1.48; in experiment [1] it was 1.54 and 1.01 and 1.4; in the experiment on OR10W1 R263Q clone 1176, 2.2 and 1.47; with OR10X1 clone 1368 it was 1.47 and 1.23; with OR10X1 clone 1516, 2.04 and 1.09 and 1.54. For the same compound, the odorant receptor activation with OR10Z1 clone 1026 is 1.86 and 1.5; in the experiment with OR11A1 clone 1062, 0.861 and 1.63; with OR11H1 clone 1558, 1.03; in the experiment with OR11H12 clone 1302, 2 and 1.4; with OR11H13 clone 1435, 1.58 and 1.38; in the experiment with OR11H4 clone 1263 it was 1.91 and 1.3. Besides, the odorant receptor activation in the experiment with OR11H4 clone 1423 is 1.49 and 1.45; in the experiment with OR11H6 clone 1275, 2.6 and 1.3; in [2], 1.52 and 1.27; in experiment [3], 1.22 and 1.37; in the experiment with OR12D2 clone 1075, 1.24 and 1.2; in the experiment on OR12D3 clone 1071, 0.747 and 1.2. Further, the odorant receptor activation in the experiment with OR13A1 clone 1107 is 1.29 and 1.41; in the experiment on OR13C2 clone 1717, 1.06.

For `CC(=O)OC(C)(C)C1CC=C(C)CC1` (stereo not given) [terpinyl acetate], the odorant receptor activation in the experiment with OR10R2 clone 1400 was found to be 0.903; in the experiment on OR10T2 clone 1032, 1.64; in [1], 1.05; in the experiment with OR10W1 R263Q clone 1176, 1.27; in the experiment on OR10X1 clone 1368, 0.658; with OR10X1 clone 1516 it was 0.806. In addition, the odorant receptor activation with OR10Z1 clone 1026 worked out at 0.798; in the experiment on OR11A1 clone 1062, 2.13; in the experiment on OR11H1 clone 1558, 1.47; in the experiment with OR11H12 clone 1302 it was 0.787; with OR11H13 clone 1435 it was 1.42; with OR11H4 clone 1263, 0.879. The odorant receptor activation was found to be 0.839 with OR11H4 clone 1423; 0.893 with OR11H6 clone 1275; 1.11 in experiment [2]; 0.813 in experiment [3]; 1.46 with OR12D2 clone 1075; 1.08 in the experiment on OR12D3 clone 1071. The odorant receptor activation in the experiment with OR13A1 clone 1107 was 1.14; in the experiment on OR13C2 clone 1717, 0.988.

On to `CC12CCC(C1)C(C)(C)C2=O` (stereo not given) [fenchone], for which the odorant receptor activation in the experiment with OR10R2 clone 1400 came out at 1.01; with OR10T2 clone 1032, 0.945; in experiment [1] it was 1.41; in the experiment with OR10W1 R263Q clone 1176 it was 1.14; in the experiment with OR10X1 clone 1368 it was 0.935; with OR10X1 clone 1516 it was 1.22. Further, the odorant receptor activation was found to be 0.932 in the experiment with OR10Z1 clone 1026; 1.84 in the experiment on OR11A1 clone 1062; 0.818 in the experiment on OR11H1 clone 1558; 0.998 with OR11H12 clone 1302; 1.01 in the experiment with OR11H13 clone 1435; 0.966 in the experiment with OR11H4 clone 1263. The odorant receptor activation came out at 0.985 with OR11H4 clone 1423; 0.933 in the experiment on OR11H6 clone 1275; 1.1 in [2]; 0.968 in [3]; 0.819 in the experiment with OR12D2 clone 1075; 0.949 in the experiment on OR12D3 clone 1071. In addition, the odorant receptor activation turned out to be 1.09 in the experiment with OR13A1 clone 1107 and 1.17 in the experiment with OR13C2 clone 1717.
